Results are given in words; binding and its absence hold for the method and conditions named. Binding seen in cells or lysates may run through a third protein.

For the assay, the target named is T1, endogenous NLRP6 (human (endogenous in LN229)) (UniProt P59044).
T1 sequence: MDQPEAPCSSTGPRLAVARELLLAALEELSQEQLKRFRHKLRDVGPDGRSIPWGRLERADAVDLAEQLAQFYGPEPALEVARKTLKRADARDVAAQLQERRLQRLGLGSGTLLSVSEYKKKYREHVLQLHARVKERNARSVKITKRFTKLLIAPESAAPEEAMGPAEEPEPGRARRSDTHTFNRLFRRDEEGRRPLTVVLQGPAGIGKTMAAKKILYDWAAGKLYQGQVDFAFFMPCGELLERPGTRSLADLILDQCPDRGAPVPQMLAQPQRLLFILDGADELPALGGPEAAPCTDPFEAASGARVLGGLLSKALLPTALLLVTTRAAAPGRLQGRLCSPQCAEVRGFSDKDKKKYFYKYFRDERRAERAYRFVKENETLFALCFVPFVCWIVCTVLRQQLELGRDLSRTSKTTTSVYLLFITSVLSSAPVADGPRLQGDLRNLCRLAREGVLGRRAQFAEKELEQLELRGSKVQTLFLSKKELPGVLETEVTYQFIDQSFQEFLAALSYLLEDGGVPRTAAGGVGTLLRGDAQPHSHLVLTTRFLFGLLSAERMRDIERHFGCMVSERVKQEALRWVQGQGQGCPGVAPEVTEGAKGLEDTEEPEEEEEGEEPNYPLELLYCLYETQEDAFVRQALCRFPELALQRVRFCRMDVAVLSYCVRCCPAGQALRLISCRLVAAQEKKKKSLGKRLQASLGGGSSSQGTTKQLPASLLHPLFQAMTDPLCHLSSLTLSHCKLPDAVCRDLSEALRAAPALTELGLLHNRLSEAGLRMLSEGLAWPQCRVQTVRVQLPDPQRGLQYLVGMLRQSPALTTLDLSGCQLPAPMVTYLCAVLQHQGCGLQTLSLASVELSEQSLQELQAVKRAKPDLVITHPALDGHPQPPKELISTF
Put plainly: co-IP; endogenous proteins in LN229 cell lysates; lysate with the indicated antibody at 4 °C overnight, Protein A/G beads 2 h; control cells of the NLRP6 KO comparisons included.

For the substance “endogenous AKT (human (endogenous in LN229))”, the binding entry is on record as “no binding”.

The values are drawn from article PMC10539329, “NLRP6 potentiates PI3K/AKT signalling by promoting autophagic degradation of p85α to drive tumorigenesis” (Nature Communications, 2023).
